Experimental findings from PubChem BioAssay AID493014 (National Center for Advancing Translational Sciences (NCATS), 2011) are described below.

The experiment is described as follows: qHTS Assay to Find Inhibitors of Chronic Active B-Cell Receptor Signaling. Conditions: ABC-DLBCL IkBa-CBG/CBR reporter, luminescence ratio (green luciferase fused to IkBa over red control in TMD8 lymphoma cells), 4 h. In a few lines: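 Cell line TMD8 (human ABC DLBCL), stably expressing tet-inducible CBG68-IkBa fusion and CBR; IMDM/0.5% FBS; cpd up to 46 uM; dox induction, 4 h, 37C/5% CO2; dual luminescence; green/red ratio; MG132 control.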
For orientation: Quantitative high-throughput screening tests each substance at several concentrations.

[1] abbreviates: measured here: CBR red luminescence, cell number.
Where [2] appears, read: measured here: IkBa-CBG green luminescence.

Some of the results follow. These are further read-outs of the screen, such as a control signal, another cell line or another target. No call is given for them. Compounds called inactive in the main read-out are mostly missing here. Words in brackets tell the shape of the fitted curve; partial curves, single points and poor fits give uncertain potencies.

In general, AC50 refers to the concentration giving half of the maximal activity seen. Take `COc1cccc(/C=N/Nc2cc(N3CCOCC3)ncn2)c1O`: the AC50 under setting [1] is 0.282 µM [falling, full curve, poor fit].

Turning to `CCCCN(CCCC)CCn1cnc2c([nH]c3ccc(OC)cc32)c1=O`, under setting [1], the half-maximal activity concentration (AC50) was 5.17 µM [rising, partial curve, poor fit].

With `CC(C)c1ccc(N=Cc2c(O)c3ccccc3oc2=O)cc1`, the concentration at half-maximal activity (AC50) under setting [1] was 6.31 µM [falling, partial curve].

For the molecule `Cc1ccc(C(=O)NC(=S)NCC(=O)c2ccccc2)cc1`, the AC50 under setting [1] was 10 µM [rising, partial curve, poor fit].

`CCCCNC(=O)COC(=O)C1CCN(S(=O)(=O)c2ccc3c(c2)OCCO3)CC1`: the AC50 under setting [1] is 4.11 µM [falling, full curve].

Take `O=C(Nc1ccc2[nH]ccc2c1)c1cccs1`: the AC50 under setting [1] is 35.5 µM [falling, single point].

Regarding `c1ccc(N=C(c2cccs2)N2CCOCC2)cc1`, the AC50 under setting [1] is 5.17 µM [falling, partial curve, poor fit].

For `CCCC(=N)C1=C(O)CC(CC(C)SCC)CC1=O` (centres undefined), under setting [1], the AC50 was 17.8 µM [rising, single point].

As to `O=C(Oc1c(CN2CCOCC2)cc(Cl)c2cccnc12)c1ccccc1Cl`, the AC50 under setting [2] was 2.24 µM [falling, partial curve].

For the molecule `CC(NC(=O)CN(C)Cc1ccc(Br)cc1)c1ccccc1` (centres undefined), the AC50 under setting [1] was 35.5 µM [falling, single point].

As for `CC(C)(C)OC(=O)NCCCCCNC(=O)c1[nH]cnc1C(=O)Nc1ccon1`, the AC50 reads like this: under setting [1], 2.31 µM [falling, partial curve, poor fit]; under setting [2], 0.92 µM [rising, full curve, poor fit].

Consider `CCc1ccc(CCC(=O)Nc2ccccc2C(=O)O)o1`, for which the concentration at half-maximal activity (AC50) under setting [1] is 2.51 µM [falling, full curve, poor fit].

Regarding `CC(NC(=O)c1cccc(Cn2cc([N+](=O)[O-])cn2)c1)c1ccc(C(C)(C)C)cc1` (centres undefined), the concentration at half-maximal activity (AC50) under setting [1] is 0.206 µM [falling, full curve, poor fit].

As to `O=[N+]([O-])c1cccc2ccc(/C=C/c3ccc(C(F)(F)F)cc3)nc12`, the AC50 under setting [1] is 0.326 µM [rising, full curve, poor fit].

As for `COc1ccc(NC(=S)Nc2cccc(C)n2)cc1`, under setting [1], the AC50 is 15.8 µM [rising, partial curve, poor fit].

On to `CC(=O)N1CCN(CCN=CC2=C(O)CC(c3ccco3)CC2=O)CC1` (centres undefined), for which the AC50 under setting [1] is 5.01 µM [rising, full curve, poor fit].

As for `O=C(Nc1ccccn1)c1ccc(S(=O)(=O)N2CCCCC2)cc1`, the AC50 under setting [1] was 5.8 µM [falling, full curve].

For the molecule `CN1CCN(S(=O)(=O)c2cccc(S(=O)(=O)c3cccc(S(=O)(=O)N4CCN(C)CC4)c3)c2)CC1`, under setting [1], the half-maximal activity concentration (AC50) was 29.1 µM [rising, single point].
